{"source": "patent US20070172514A1", "about": "“Materials and methods for improving livestock productivity” (priority 2006, published 2007)", "test_system": "swine", "experiment": "Sensory evaluation of pork from swine fed diets with Cysteamine HCl", "type": "in vivo", "settings": "in words; 150 g per ton of feed", "data": [{"smiles": "Cl.NCCS", "note": "[Cysteamine HCl, cysteamine hydrochloride]", "values": [{"measurement": "Sensory review of meat flavor and attributes vs swine without cysteamine hydrochloride", "result": "no significant difference"}]}]}
